The list shows a part of the results. Most entries show no effect beyond the scatter of the controls.

Sequences of proteins named here, by UniProt entry; tags and fusion partners are left off. A change or cut given only in a name is not applied to a line headed by its entry.
UniProt Q5SVZ6: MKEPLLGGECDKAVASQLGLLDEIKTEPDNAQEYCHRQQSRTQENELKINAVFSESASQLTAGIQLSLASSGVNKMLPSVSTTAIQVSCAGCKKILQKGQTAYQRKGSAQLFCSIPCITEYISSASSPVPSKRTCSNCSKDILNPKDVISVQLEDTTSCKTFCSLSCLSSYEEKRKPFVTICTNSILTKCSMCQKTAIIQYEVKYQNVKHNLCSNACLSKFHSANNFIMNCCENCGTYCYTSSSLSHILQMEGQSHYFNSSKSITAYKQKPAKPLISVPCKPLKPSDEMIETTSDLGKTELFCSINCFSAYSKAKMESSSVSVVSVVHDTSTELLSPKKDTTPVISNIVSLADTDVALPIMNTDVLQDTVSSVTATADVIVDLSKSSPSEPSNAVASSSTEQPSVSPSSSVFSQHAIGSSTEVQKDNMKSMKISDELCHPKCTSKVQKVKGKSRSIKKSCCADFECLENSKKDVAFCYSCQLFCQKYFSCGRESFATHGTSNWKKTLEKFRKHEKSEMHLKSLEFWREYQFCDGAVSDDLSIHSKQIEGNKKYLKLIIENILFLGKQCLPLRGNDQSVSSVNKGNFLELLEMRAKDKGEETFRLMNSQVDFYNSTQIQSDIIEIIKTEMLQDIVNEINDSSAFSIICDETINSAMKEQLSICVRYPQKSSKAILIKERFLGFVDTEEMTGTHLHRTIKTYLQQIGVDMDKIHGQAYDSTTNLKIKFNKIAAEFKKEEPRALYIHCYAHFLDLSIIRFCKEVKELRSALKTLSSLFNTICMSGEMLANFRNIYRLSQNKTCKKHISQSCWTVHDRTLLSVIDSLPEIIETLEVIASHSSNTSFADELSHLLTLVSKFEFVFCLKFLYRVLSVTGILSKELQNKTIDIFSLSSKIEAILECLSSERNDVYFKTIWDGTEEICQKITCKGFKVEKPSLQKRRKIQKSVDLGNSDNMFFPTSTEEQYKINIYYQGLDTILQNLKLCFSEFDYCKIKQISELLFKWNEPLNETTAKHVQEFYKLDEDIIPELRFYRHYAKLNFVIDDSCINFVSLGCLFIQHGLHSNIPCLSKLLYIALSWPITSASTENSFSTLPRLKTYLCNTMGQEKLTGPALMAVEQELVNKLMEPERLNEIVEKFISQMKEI
UniProt Q58FG1, whole entry: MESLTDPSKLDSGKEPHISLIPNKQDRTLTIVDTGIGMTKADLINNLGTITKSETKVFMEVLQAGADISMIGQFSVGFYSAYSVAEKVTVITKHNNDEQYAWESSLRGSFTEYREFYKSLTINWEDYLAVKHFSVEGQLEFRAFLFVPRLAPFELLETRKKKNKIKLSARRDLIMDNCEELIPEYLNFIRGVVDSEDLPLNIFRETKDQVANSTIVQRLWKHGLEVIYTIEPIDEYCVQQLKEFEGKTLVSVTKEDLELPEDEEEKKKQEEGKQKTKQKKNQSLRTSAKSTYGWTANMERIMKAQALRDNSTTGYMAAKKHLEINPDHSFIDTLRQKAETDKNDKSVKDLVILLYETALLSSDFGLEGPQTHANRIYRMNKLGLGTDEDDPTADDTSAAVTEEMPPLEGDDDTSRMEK
UniProt Q4KMQ2: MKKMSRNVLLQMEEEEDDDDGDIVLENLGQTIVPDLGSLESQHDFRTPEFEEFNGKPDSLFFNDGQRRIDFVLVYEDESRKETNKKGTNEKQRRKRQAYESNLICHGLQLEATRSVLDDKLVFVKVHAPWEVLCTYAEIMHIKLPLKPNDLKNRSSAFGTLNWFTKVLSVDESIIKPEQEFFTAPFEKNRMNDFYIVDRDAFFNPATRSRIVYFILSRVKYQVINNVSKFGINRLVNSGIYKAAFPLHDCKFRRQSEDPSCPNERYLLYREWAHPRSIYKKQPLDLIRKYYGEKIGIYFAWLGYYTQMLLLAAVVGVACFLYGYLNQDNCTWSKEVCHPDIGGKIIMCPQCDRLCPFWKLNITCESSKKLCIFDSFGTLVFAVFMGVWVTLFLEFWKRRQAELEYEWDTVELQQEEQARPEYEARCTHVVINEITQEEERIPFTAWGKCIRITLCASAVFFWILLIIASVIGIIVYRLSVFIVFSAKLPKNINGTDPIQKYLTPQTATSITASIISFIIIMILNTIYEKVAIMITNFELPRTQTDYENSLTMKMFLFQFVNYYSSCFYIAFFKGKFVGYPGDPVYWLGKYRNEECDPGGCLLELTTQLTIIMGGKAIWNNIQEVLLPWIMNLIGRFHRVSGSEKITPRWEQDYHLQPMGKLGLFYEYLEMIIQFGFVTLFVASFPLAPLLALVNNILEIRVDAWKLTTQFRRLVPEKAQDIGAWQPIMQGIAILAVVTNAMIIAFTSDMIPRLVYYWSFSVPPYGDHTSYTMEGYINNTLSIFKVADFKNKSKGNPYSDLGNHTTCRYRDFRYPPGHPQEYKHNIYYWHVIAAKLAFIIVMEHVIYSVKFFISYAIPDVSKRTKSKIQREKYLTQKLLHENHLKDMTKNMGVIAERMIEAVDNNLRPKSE
UniProt Q5JTW2: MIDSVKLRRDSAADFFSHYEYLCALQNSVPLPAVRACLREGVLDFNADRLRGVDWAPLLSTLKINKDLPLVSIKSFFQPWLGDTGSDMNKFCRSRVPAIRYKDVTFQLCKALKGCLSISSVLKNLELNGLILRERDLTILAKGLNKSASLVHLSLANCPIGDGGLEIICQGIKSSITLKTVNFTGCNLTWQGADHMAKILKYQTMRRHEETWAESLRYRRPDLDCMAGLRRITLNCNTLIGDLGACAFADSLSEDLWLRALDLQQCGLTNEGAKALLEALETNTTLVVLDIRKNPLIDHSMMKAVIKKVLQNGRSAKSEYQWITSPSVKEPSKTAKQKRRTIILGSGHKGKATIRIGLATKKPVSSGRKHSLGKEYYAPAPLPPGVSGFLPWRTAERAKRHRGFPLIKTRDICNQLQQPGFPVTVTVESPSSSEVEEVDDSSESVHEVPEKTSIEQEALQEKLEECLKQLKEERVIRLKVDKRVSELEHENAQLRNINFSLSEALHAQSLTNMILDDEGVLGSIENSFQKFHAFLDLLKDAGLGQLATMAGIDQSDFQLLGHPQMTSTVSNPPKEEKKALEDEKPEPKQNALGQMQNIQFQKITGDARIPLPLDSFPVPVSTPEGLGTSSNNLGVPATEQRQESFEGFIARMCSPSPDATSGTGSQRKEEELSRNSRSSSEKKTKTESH
UniProt Q5EBM0: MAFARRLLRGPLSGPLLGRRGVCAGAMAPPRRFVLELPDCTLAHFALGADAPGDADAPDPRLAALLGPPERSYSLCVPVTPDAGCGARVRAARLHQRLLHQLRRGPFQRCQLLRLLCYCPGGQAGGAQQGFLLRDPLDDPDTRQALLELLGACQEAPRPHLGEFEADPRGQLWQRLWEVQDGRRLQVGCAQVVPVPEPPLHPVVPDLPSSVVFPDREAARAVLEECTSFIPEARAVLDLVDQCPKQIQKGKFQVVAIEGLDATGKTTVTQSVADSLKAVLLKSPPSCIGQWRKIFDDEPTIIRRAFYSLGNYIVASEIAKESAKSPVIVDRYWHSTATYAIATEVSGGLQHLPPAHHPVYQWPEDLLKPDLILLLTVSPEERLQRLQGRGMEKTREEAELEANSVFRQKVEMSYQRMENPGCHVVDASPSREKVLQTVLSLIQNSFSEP
UniProt Q5HYC2: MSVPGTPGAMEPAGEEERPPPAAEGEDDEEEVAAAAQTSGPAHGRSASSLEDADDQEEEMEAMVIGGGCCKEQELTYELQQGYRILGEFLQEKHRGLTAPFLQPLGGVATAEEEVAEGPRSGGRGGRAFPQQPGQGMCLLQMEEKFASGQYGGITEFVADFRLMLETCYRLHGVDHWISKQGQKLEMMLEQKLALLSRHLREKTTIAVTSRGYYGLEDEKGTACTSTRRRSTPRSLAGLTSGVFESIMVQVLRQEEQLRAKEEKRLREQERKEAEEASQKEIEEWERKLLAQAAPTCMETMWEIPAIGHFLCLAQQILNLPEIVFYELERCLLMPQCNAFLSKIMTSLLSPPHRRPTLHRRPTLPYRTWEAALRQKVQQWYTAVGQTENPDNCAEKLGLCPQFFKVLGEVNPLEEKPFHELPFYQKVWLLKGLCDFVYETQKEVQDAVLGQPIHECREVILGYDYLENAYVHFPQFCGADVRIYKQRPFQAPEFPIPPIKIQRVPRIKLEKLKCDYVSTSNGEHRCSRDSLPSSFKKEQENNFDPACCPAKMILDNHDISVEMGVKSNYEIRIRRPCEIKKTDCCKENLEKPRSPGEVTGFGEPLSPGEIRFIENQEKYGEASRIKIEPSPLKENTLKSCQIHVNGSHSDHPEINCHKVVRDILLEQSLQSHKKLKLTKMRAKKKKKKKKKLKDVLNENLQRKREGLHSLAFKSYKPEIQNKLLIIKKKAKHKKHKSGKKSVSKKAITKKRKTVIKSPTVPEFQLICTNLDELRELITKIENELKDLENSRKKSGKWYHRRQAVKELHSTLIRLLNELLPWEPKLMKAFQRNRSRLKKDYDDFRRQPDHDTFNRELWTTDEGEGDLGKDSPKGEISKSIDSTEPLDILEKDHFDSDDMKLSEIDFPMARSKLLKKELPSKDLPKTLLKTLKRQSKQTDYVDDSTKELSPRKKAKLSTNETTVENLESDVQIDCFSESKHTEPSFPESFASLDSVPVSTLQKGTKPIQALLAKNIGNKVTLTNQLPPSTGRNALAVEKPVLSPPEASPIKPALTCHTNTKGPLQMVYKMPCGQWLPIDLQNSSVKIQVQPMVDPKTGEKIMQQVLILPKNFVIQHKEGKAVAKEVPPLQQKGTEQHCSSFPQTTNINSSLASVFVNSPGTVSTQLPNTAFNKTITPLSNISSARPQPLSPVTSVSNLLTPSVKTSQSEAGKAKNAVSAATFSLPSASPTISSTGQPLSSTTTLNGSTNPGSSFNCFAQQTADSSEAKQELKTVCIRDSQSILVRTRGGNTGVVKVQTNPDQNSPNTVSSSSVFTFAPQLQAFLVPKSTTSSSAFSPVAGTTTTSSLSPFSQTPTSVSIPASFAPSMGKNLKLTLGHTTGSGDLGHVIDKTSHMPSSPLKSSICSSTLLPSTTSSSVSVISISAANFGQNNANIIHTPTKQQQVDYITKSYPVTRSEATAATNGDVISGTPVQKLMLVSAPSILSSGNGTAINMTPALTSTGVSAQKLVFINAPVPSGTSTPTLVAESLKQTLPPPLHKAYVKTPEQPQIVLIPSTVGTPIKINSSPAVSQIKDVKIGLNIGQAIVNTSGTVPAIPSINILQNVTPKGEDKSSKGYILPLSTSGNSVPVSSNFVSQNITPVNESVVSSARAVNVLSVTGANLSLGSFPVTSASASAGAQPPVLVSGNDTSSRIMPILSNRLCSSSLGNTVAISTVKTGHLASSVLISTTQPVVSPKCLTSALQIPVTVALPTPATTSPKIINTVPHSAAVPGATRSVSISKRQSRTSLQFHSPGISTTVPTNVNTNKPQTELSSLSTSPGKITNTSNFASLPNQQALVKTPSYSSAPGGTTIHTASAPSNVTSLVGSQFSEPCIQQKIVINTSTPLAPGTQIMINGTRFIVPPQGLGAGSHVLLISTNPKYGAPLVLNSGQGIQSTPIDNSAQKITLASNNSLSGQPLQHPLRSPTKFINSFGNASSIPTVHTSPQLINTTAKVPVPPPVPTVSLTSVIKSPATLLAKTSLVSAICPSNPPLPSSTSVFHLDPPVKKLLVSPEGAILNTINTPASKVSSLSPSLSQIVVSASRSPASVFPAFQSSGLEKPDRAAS
UniProt Q5TF39: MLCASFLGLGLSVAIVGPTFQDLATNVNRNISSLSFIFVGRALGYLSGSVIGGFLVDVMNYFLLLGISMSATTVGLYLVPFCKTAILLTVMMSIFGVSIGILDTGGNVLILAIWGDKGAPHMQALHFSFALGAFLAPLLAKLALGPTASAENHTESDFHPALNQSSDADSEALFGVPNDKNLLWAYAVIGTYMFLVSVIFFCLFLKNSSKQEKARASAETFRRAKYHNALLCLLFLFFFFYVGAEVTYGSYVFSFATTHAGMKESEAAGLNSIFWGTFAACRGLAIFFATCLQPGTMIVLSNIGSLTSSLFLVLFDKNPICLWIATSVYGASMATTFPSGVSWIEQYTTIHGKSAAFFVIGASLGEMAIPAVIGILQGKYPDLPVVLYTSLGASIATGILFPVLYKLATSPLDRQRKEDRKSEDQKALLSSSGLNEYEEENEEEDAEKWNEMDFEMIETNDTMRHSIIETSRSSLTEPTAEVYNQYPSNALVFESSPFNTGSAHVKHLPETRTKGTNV

Compound in this test: Cc1nc(Nc2ncc(C(=O)Nc3c(C)cccc3Cl)s2)cc(N2CCN(CCO)CC2)n1 [dasatinib]
Nature of the test: log2 fold change of tryptic peptide abundance, ligand vs vehicle (limited proteolysis) (log2 ratio); higher = more trypsin-susceptible (destabilized). To be noted: ligand concentration: 5 uM; sample: K562 cleared lysate.
For “ZMYM1 (peptide sequence: TEPDNAQEYCHR, peptide start residue: 26) (UniProt Q5SVZ6)”, the log2 fold change is -0.833.

In the case of “UniProt Q4G0N4 (peptide sequence: ILFSIREPIANR, peptide start residue: 373)”, the log2 fold change was -0.0634.

For the target “HSP90AA4P (peptide sequence: ESLTDPSKLDSGK, peptide start residue: 2) (UniProt Q58FG1)”, the log2 fold change turned out to be 0.109.

Regarding “ANO6 (peptide sequence: NMGVIAER, peptide start residue: 889) (UniProt Q4KMQ2)”, the log2 fold change is -0.126.

“CEP78 (peptide sequence: HEETWAESLR, peptide start residue: 208) (UniProt Q5JTW2)”: the log2 fold change was -0.477.

On to “UniProt Q4ADV7 (peptide sequence: TPEQTSPR, peptide start residue: 1366)”, for which the log2 fold change is -0.251.

For “CMPK2 (peptide sequence: KIFDDEPTIIRR, peptide start residue: 293) (UniProt Q5EBM0)”, the log2 fold change was 0.24.

Consider “UniProt Q5TAX3 (peptide sequence: IDLKPLPPMTNR, peptide start residue: 935)”, for which the log2 fold change was -0.358.

In the case of “UniProt Q5HYC2 (peptide sequence: DILLEQSLQSHKK, peptide start residue: 662)”, the log2 fold change was -0.585.

Regarding “UniProt Q3V5L5 (peptide sequence: ESLIFMK, peptide start residue: 340)”, the log2 fold change is -0.15.

For the target “UniProt Q5TF39 (peptide sequence: HSIIETSR, peptide start residue: 465)”, the log2 fold change is 0.124.
